Structures are written as SMILES. This is one part of the list. Shown are side measurements of this screen, not its main read-out; they come without a call. The list favours compounds with an active or inconclusive main result. The note in brackets gives the kind of curve behind each potency; many fits are weak.

A short description of this assay: qHTS Assay for Lipid Storage Modulators in Drosophila S3 Cells.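 On cell number change: cells counted by Cell Tracker Red CMTPX staining in the red channel.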 The conditions noted are these: BODIPY lipid droplet fluorescence, 18-24 h; for cell number change: measured here: cell count max response, cells fed with added oleic acid. In outline:
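Laser-scanning cytometry quantifies lipid droplet accumulation (500–530 nm total intensity; droplet/cell object ratio) in oleic acid-fed (400 uM added) Drosophila S3 cells treated with a concentration series. 20 uM Triacsin C defined 100% inhibition.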
A general note: Quantitative high-throughput screening tests each substance at several concentrations.

[1] abbreviates: measured here: lipid fluorescence (Fed channel) AC50, cells fed with added oleic acid.
Setting [2] is: measured here: cell number channel AC50, cells fed with added oleic acid.

The AC50 is the concentration at which the activity in the assay is half-maximal. Low values mean activity at low concentration, high ones activity only at high concentration. As for `NC1=NC[C@@H](Cc2ccc(O)cc2)N1CCCCC1CCCCC1`, the cell number change is -5.81%. Besides, under setting [1], the AC50 was 0.231 µM [falling, full curve, poor fit].

Regarding `Fc1ccccc1CSc1nc2ncc(Br)cc2[nH]1`, the AC50 under setting [2] was 0.00461 µM [falling, full curve, poor fit].

As for `COc1ccccc1/C=N/NC(=O)c1ccc(=O)n(C)c1`, the cell number change is -72.7%. In addition, the AC50 under setting [2] was 13 µM [falling, partial curve]. Moreover, the AC50 under setting [1] is 4.11 µM [falling, single point].

Consider `O=C(CCNC(=O)c1ccc(Cl)cc1)Nc1ccccc1N1CCCC1`, for which the cell number change was 20.5%.

`Cc1c(Cc2ccccc2)c(=O)oc2c(C)c(OC(C)C(=O)NCC3CCC(C(=O)O)CC3)ccc12` (stereo not drawn): the cell number change was found to be 4.21%. Besides, the AC50 under setting [1] was 18.4 µM [falling, partial curve, poor fit].

In the case of `COc1cccc(C(=O)OCCN2C(=O)c3ccccc3C2=O)c1OC`, the cell number change is -38.3%. For the same compound, under setting [2], the AC50 was 32.6 µM [falling, single point]. Under setting [1], the AC50 is 29.1 µM [falling, single point].

As for `CCc1ccc2oc(C(=O)NC3CCS(=O)(=O)C3)cc(=O)c2c1` (stereo not drawn), the cell number change was 4.48%. Moreover, under setting [1], the AC50 is 6.51 µM [falling, single point].

With `CCNC(=O)NC(=O)COc1ccccc1C#N`, the cell number change came to 106%. Further, the AC50 under setting [2] was 5.8 µM [rising, partial curve]. Under setting [1], the AC50 is 32.6 µM [rising, single point].

As to `CC1Oc2ccccc2N(CC(=O)NCCCN2CCOCC2)C1=O` (stereo not drawn), the cell number change is -12.8%. Moreover, the AC50 under setting [1] is 29.1 µM [falling, single point].

For `COC(=O)c1cnn(-c2ccc(C(=O)Nc3ccc(C(C)=O)cc3)cc2)c1N`, the cell number change came out at 37.6%. Besides, the AC50 under setting [2] was 14.6 µM [rising, partial curve].

Consider `COc1ccc(Cl)cc1Nc1nc(-c2sc(NC(=O)c3ccccc3)nc2C)cs1`, for which the cell number change was -42.2%. Under setting [2], the AC50 is 9.2 µM [falling, partial curve]. In addition, under setting [1], the AC50 was 10.3 µM [falling, partial curve].

On to `O=C(Oc1ccc(Br)cc1)c1n[nH]c(=O)c2ccccc12`, for which the cell number change is -35.6%.

Regarding `C/C(=N\OCC(=O)Nn1c(=O)[nH]c2ccccc2c1=O)c1cccs1`, the cell number change is -5.46%.

For the compound `CC(=O)N(/N=C/c1ccc(C)cc1)c1nc(CCl)cs1`, the cell number change was 11.3%.

For the compound `NC(=O)CC(NC(=O)c1cccc(Br)c1)c1ccc(N2CCC(N3CCCCC3)CC2)c([N+](=O)[O-])c1` (stereo not drawn), the cell number change was 14.4%. Also, under setting [1], the AC50 is 0.651 µM [rising, single point].

`O=[N+]([O-])c1cc(Cl)ccc1NCCc1ccccn1`: the cell number change amounted to 14.5%.

Take `CCOc1ccc(S(=O)(=O)N(CC(=O)N/N=C/c2cccs2)c2ccc(C)cc2)cc1`: the cell number change came to 86.8%. Besides, the AC50 under setting [2] is 3.66 µM [rising, full curve]. Moreover, the AC50 under setting [1] is 3.66 µM [rising, full curve].

Turning to `COC(=O)c1ccc(NC(C)=O)o1`, the cell number change was -14.7%.

For the compound `Cc1ccc(-n2c(C)cc(/C=N/Nc3ccc([N+](=O)[O-])cn3)c2C)cc1`, the cell number change is -15.5%. Also, the AC50 under setting [1] was 6.51 µM [falling, single point].

With `O=C(Nc1ccc(N2CCCCC2)c(Cl)c1)c1ncn[nH]1`, the cell number change is -37.9%. In addition, under setting [2], the AC50 was 14.6 µM [falling, single point].

`NC(=O)N1CCN(C(=O)c2ccco2)CC1`: the cell number change was -7.59%. Moreover, the AC50 under setting [1] was 20.6 µM [falling, single point].

Turning to `Cc1nn(CC2CCCCC2)c(N)c1-c1ccccc1`, the AC50 under setting [2] is 0.731 µM [rising, partial curve].

Turning to `Cc1ccc(C)c(NS(=O)(=O)c2ccc(NC(=O)c3ccco3)cc2)c1`, under setting [1], the AC50 was 29.1 µM [falling, single point].

Take `O=C(CCC(=O)c1ccccc1)Nc1ccc(C(=O)O)cc1`: the AC50 under setting [1] is 4.61 µM [rising, partial curve].

For the compound `COc1ccc(NC(=O)c2cc(-c3cc(OC)c(OC)c(OC)c3)nc3ccccc23)c(OC)c1`, the cell number change was 10.5%.

As to `CCOc1ccc(NS(=O)(=O)c2ccc(C(=O)NCc3cccnc3)cc2)cc1`, the cell number change is -14%. In addition, the AC50 under setting [1] was 0.651 µM [falling, partial curve, poor fit].

As for `CC(Sc1n[nH]c(N)n1)C(=O)Nc1cccc2ccccc12` (stereo not drawn), the cell number change was -19.4%. The AC50 under setting [1] was 16.4 µM [falling, single point].

Regarding `CC12CCC(C(=O)N(CSC(=S)N/N=C\c3ccccc3O)C1=O)C2(C)C` (stereo not drawn), the cell number change was -6.78%. Besides, the AC50 under setting [1] is 14.6 µM [falling, single point].

As to `CC1CCC(NC(=O)c2ccc(NC(=O)CC3SC(N4CCCC4)=NC3=O)cc2)CC1` (stereo not drawn), the cell number change was 31.6%. Further, under setting [2], the AC50 is 3.26 µM [rising, full curve]. Besides, the AC50 under setting [1] is 0.0082 µM [rising, full curve, poor fit].

As for `O=C(CCc1ccccc1)n1nc(-c2ccco2)nc1SCc1ccccc1`, the cell number change is 52.4%. The AC50 under setting [2] was 29.1 µM [rising, single point].

For `COC(=O)C1=C(N)Oc2cc(C)n(Cc3cccnc3)c(=O)c2C1c1ccccc1OC` (stereo not drawn), the cell number change is -1.29%. The AC50 under setting [1] was 5.8 µM [rising, single point].

As to `CCC(=O)Nc1cccc(Oc2nc(C)cc(C)c2C#N)c1`, the cell number change was 24.7%. Further, the AC50 under setting [2] was 1.84 µM [rising, full curve, poor fit]. Moreover, the half-maximal activity concentration (AC50) under setting [1] was 0.259 µM [falling, full curve].

As to `O=C(Nc1nc2ccccc2s1)NC1CCCCC1`, the cell number change was -39.4%. Under setting [2], the AC50 is 29.1 µM [falling, single point].

Turning to `COc1ccc2oc(=O)c(C(=O)N3CCN(c4ccccc4C)CC3)cc2c1`, the AC50 was 5.17 µM [rising, partial curve] under setting [2] and 1.16 µM [rising, partial curve] under setting [1].

On to `CC1(C)NC(=O)N(CC(=O)N2CCCC(C(F)(F)F)C2)C1=O` (stereo not drawn), for which the cell number change was -24.3%. Further, the AC50 under setting [2] is 0.0326 µM [falling, full curve, poor fit]. For the same compound, the AC50 under setting [1] is 5.17 µM [falling, full curve].

For the compound `COc1ccc(-c2cc(C(=O)NCCN3CCOCC3)no2)cc1OC`, the cell number change stood at 12.6%. The AC50 under setting [1] was 11.6 µM [falling, single point].

On to `CCOc1ccc(OCCC(=O)Nc2cccc(S(=O)(=O)N3CCCC3)c2)cc1`, for which the cell number change was found to be 122%. In addition, under setting [2], the AC50 was 11.6 µM [rising, partial curve].

For `Cc1ccc(CNS(=O)(=O)c2c(C)nc3scc(C)n3c2=O)cc1`, the cell number change was found to be 12.7%. Under setting [2], the AC50 is 2.31 µM [rising, single point]. Besides, the AC50 under setting [1] is 29.1 µM [rising, single point].

Consider `COc1cccc(/C=N/N2CCN(C)CC2)c1`, for which the cell number change turned out to be 16.8%. Besides, the AC50 under setting [2] was 6.51 µM [rising, partial curve].

With `Cc1ccc(NC(=O)C(Cc2ccccc2)N2C(=O)C3C4CCC(C4)C3C2=O)cc1Cl` (stereo not drawn), the cell number change was -4.34%. Besides, the AC50 under setting [1] is 0.184 µM [falling, full curve, poor fit].

For the compound `COc1ccc(C(=O)CC2OC(=O)c3c2ccc(OC)c3OC)cc1` (stereo not drawn), the cell number change was found to be 0.0238%. The AC50 under setting [1] was 6.51 µM [falling, single point].

With `CN1CCN(Cc2c(C#N)c3ccccc3n2C)CC1`, the cell number change was -5.17%. Besides, the AC50 under setting [1] was 5.8 µM [falling, full curve].

Turning to `Cc1ccc(OCCNC(=O)c2ccccc2SCC(=O)N2CCCC2)cc1`, the cell number change was -38.9%. Besides, the AC50 under setting [2] was 18.4 µM [falling, partial curve].

As for `O=C(CCN1CCOCC1)NNC(=O)/C(=C/c1ccccc1)NC(=O)c1ccccc1`, the cell number change was determined as 24.4%. Moreover, under setting [2], the AC50 is 3.66 µM [falling, single point].

Regarding `COCCCNC(=O)Nc1ccc(F)cc1F`, the cell number change was -19.5%.

Regarding `CN(Cc1ccc(OCC(O)CN2CCCCC2)cc1)Cc1ccnc2ccccc12` (stereo not drawn), the cell number change was -35.8%. Further, under setting [2], the AC50 is 14.6 µM [falling, single point]. Further, the concentration at half-maximal activity (AC50) under setting [1] is 13 µM [falling, partial curve].

Consider `COc1cc(Cl)c(C)cc1NC(=O)CSc1ccccc1`, for which the cell number change is -12.5%. For the same compound, the AC50 under setting [2] is 6.51 µM [falling, single point].

For `COc1ccc(C(=O)n2nc(-c3ccc(Cl)cc3)nc2N)cc1OC`, the cell number change was -77.1%. Also, the AC50 under setting [2] was 8.2 µM [falling, partial curve]. Moreover, the AC50 under setting [1] was 16.4 µM [falling, single point].

Regarding `CC(C)C(c1nnnn1Cc1ccc(F)cc1)N1CCN(C2CCCCC2)CC1` (stereo not drawn), the cell number change is -9.32%. Further, under setting [2], the AC50 was 0.0731 µM [falling, full curve, poor fit].

On to `O=C(c1ccc(Cl)c(Cl)c1)N1CCCC1`, for which the cell number change was -13.7%. Also, the AC50 under setting [2] was 0.00517 µM [falling, full curve, poor fit]. Moreover, under setting [1], the AC50 was 0.92 µM [falling, full curve, poor fit].

`CCc1ccccc1Oc1coc2cc(O)ccc2c1=O`: the cell number change was -25%. Further, the AC50 under setting [1] was 4.11 µM [falling, partial curve, poor fit].

As to `Cc1ccc(C)c(S(=O)(=O)N2CCC3(CC2)OCCN3S(=O)(=O)c2cccs2)c1`, the cell number change amounted to 1.35%. For the same compound, the AC50 under setting [2] is 2.91 µM [rising, single point].

`O=C(N/N=C/c1c[nH]c2ccc(Br)cc12)c1ccn(Cc2ccc(Cl)cc2)n1`: the cell number change is -12%.

`Cc1ccccc1N1CC(O)(c2ccccc2)[N+]2=C1SCC2` (stereo not drawn): the cell number change is -15.4%. Besides, the concentration at half-maximal activity (AC50) under setting [1] was 16.4 µM [falling, single point].

`COCCn1c(SCC(=O)Nc2ccc(NC(=O)c3ccco3)c(OC)c2)nc2ccccc2c1=O`: the cell number change is -86.1%. For the same compound, the AC50 under setting [2] was 13 µM [falling, partial curve, poor fit].

For `O=C(CC1NCCc2ccccc21)Nc1ccccc1Cl` (stereo not drawn), the cell number change was -15.7%.

As to `COC(=O)C1=CO[C@@H](C)[C@H]2CN3CCc4c([nH]c5ccccc45)[C@@H]3C[C@H]12`, the cell number change stood at 33.2%. Besides, the AC50 under setting [2] was 0.326 µM [rising, full curve, poor fit]. Further, the AC50 under setting [1] was 0.366 µM [rising, full curve, poor fit].

As for `O=C(Nc1nn[nH]n1)c1cccc(Oc2ccccc2)c1`, the cell number change is -76.7%. Also, under setting [2], the AC50 is 16.4 µM [falling, partial curve, poor fit]. In addition, the AC50 under setting [1] is 29.1 µM [falling, single point].

Regarding `O=C(NC1CCCCC1)c1cc(S(=O)(=O)N2CCOCC2)ccc1Cl`, the cell number change is 1.3%. The AC50 under setting [1] was 0.13 µM [rising, full curve, poor fit].

These data come from PubChem BioAssay AID2685 (National Center for Advancing Translational Sciences (NCATS), 2010).
